Test results: paper PMC7674491
No constants are given. Whether binding was seen depends on the method and setting. In cells and extracts the contact can be indirect. Binding calls can cover weak binding; strength is not graded here. Where a sequence is shown, tags or fusion partners need not be part of it.

By UniProt entry, the sequences of proteins in these tests, tags left out. Where a name states a change or a piece, a line headed by the entry shows the natural chain unless it says otherwise.
UniProt P67775: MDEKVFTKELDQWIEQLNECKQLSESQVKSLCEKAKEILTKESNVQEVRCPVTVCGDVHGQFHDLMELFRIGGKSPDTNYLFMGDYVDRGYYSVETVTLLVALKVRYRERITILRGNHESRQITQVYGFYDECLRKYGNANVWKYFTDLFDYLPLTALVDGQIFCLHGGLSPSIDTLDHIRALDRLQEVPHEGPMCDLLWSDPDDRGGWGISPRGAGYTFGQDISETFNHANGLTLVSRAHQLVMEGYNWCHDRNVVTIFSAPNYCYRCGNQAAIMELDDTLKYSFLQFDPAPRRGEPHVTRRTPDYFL

Tests used:
[1] = target: T1, C-FLAG-PPP2R2B (UniProt Q00005); assay: co-IP; ANTI-FLAG M2 affinity gel on lysates of SKBR3 cells stably expressing FLAG fusion PPP2R2B (cells treated with 10 µg/ml trastuzumab for 6 h); phosphatase assay buffer (20 mM imidazole-HCl, 2 mM EDTA, 2 mM EGTA, 1 mM Na3VO4, 0.1% NP-40, pH 7.0), 4 °C, 3 h, four washes; western blot
T1 sequence: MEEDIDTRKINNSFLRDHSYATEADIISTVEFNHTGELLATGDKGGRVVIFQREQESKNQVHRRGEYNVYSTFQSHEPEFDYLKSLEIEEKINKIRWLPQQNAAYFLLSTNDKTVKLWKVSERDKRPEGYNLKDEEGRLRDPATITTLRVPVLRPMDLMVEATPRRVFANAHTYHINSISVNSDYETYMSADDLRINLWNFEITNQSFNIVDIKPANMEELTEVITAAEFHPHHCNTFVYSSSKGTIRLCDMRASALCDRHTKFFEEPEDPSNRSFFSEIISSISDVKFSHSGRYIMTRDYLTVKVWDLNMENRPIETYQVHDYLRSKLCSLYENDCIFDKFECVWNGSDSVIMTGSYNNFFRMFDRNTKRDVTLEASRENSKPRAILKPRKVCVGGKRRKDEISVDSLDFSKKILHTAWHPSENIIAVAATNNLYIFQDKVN

[2] = target: T2, N-FLAG-PPP2R2B (UniProt Q00005); assay: as above
T2 sequence: T1 sequence

| Substance | binding [1] | binding [2] |
| --- | --- | --- |
| PP2A catalytic C subunit (from UniProt P67775) | binds | binds |
| PP2A scaffolding A subunit (human (endogenous in SKBR3)) | binds | binds |
